In this assay the target is human AKT serine/threonine Kinase 3 (AKT3), AKT3 (gene 10000) (UniProt Q9Y243). Kind of assay: NVS_ENZ_hAKT3: NovaScreen (NVS) Enzymatic Assay for human AKT serine/threonine Kinase 3 (AKT3). The procedure: NVS_ENZ_hAKT3 is a biochemical, single-readout assay that uses extracted gene-proteins in a cell-free assay. Measurements were taken 1 hour after chemical dosing in a 384-well plate.NVS_ENZ_hAKT3 is one of one assay component(s) measured or calculated from the NVS_ENZ_hAKT3 assay. It is designed to make measurements of enzyme activity, a form of enzyme reporter, as detected with fluorescence intensity signals by Fluorescence and electrophoretic mobility shift technology.Data from the assay component NVS_ENZ_hAKT3 was analyzed into 1 assay endpoint. This assay endpoint, NVS_ENZ_hAKT3, was analyzed in the positive analysis fitting direction relative to DMSO as the negative control and baseline of activity. Using a type of enzyme reporter, loss-of-signal activity can be used to understand changes in the enzymatic activity as they relate to the gene AKT3. Furthermore, this assay endpoint can be referred to as a primary readout, because this assay has produced multiple assay endpoints where this one serves a enzymatic activity function. To generalize the intended target to other relatable targets, this assay endpoint is annotated to the kinase intended target family, where the subfamily is serine/threonine kinase. […]

Chains of the proteins cited; added tags and fusions are not shown. Lines headed by an entry give the natural chain unless they say otherwise; changes in a name come on top.
UniProt Q9Y243: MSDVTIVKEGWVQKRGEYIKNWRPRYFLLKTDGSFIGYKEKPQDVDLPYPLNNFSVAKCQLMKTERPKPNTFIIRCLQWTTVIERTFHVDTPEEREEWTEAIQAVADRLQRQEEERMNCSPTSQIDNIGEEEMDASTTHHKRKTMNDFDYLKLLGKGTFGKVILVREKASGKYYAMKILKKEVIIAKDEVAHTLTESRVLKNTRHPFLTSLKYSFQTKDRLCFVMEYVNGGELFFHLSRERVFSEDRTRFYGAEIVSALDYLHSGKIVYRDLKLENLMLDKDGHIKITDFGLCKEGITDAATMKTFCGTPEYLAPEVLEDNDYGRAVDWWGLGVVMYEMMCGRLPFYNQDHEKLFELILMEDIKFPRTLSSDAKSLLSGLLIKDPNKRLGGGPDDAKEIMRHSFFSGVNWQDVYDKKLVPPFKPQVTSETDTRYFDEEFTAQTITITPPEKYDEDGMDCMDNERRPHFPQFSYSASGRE

The entries are a selection whose mix differs from that of the whole data set. Records with an inconclusive call do not appear. Active and inactive are the calls of the source. How the source made its calls: active means hit-call score of the fitted dose curve at least 0.9, where 1 is the maximum; inconclusive means response in the unintended direction; inactive means score below 0.9.

With `S=C(S)NCCNC(=S)S.[Mn+2].[S-]C([S-])=NCCN=C([S-])[S-].[Zn+2]`, the AC50 (as a rule, the midpoint of the concentration-response curve, whichever way the signal moves) is active: 13.6 µM.

Values taken from PubChem BioAssay AID2283127 (EPA ToxCast).
